Experimental data from PubChem BioAssay AID1117319 (Southern Research Institute, 2015).
About 1,500 (0.58%) of roughly 260,000 compounds were called active. The shares of active, inactive and inconclusive entries below differ from those in the screen.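 Rule for the calls: active = inhibition above a set limit at one or more doses, reproduced on every date tested; inconclusive = results disagree between test dates, or hit never tested in dose response; inactive = the rest.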

Amino acid sequences for entries named in this document (tags omitted). A change or cut given only in a name is not applied to a line headed by its entry.
UniProt P69720: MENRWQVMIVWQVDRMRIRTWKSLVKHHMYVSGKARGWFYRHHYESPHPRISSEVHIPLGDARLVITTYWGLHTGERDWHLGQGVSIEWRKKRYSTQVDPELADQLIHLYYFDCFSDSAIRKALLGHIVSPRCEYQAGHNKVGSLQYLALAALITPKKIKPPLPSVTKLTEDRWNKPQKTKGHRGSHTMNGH
UniProt P69721: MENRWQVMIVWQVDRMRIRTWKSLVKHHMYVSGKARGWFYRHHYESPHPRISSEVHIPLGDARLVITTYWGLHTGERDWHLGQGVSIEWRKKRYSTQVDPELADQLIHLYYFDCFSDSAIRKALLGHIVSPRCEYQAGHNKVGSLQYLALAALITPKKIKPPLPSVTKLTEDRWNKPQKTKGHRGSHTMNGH
UniProt P69722: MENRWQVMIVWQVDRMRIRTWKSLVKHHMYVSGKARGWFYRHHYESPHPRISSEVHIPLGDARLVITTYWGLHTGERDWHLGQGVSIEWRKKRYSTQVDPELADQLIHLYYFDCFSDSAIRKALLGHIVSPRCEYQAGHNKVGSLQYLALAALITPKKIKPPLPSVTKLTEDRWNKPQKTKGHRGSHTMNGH
UniProt P69723: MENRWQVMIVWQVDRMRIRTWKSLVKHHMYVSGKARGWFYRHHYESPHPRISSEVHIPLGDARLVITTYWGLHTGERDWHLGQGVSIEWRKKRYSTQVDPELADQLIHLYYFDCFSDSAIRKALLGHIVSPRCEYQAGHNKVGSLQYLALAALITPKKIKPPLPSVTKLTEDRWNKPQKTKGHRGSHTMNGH
UniProt Q9HC16: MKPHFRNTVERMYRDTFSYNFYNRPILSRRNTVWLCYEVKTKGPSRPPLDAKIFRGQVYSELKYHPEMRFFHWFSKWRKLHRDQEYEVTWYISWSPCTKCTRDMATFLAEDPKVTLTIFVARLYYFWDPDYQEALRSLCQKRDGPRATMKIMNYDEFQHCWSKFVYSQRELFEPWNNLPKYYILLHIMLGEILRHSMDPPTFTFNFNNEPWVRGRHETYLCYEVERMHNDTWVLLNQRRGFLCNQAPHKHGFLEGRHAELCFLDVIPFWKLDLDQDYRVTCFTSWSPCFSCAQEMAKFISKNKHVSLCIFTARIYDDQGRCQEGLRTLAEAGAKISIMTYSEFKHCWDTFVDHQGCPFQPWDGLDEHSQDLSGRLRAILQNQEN

The compounds below were run against Virion infectivity factor (Human immunodeficiency virus type 1 group M subtype B (isolate BH10)) + Virion infectivity factor (Human immunodeficiency virus type 1 group M subtype B (isolate BRU/LAI)) + Virion infectivity factor (Human immunodeficiency virus type 1 group M subtype B (isolate PCV12)) + Virion infectivity factor (Human immunodeficiency virus type 1 group M subtype B (isolate HXB2)) + DNA dC->dU-editing enzyme APOBEC-3G (Homo sapiens) (UniProt P69720+P69721+P69722+P69723+Q9HC16) (assay: inhibitors of Vif binding to APOBEC3G peptide, primary screen, biochemical, TR-FRET, GST-Vif 1-94, biotin-A3G peptide, dose response retest (AID 1117319;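 note: Vif residues 1-94 fused to GST binding biotinylated APOBEC3G peptide 110-148; 0% = full assay without inhibitor and 100% = GST in place of GST-Vif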)). Conditions: active compounds read high.

SMILES	inhibition
CC1=C(C#N)CCC(=O)N1Cc1c(C)cc(C)cc1C	inconclusive: 40%
Cc1cc(N)ccc1S(C)(=O)=O	inconclusive: 43.5%
Cc1ccc(C2C(C#N)=C(N)Oc3n[nH]c(C)c32)cc1 (stereo unspecified)	inconclusive: 30.7%
Cc1cc2c3c(c1)C1(C(=O)N3C(C)(C)CC2C)C(C#N)=C(N)Oc2n[nH]c(C)c21 (stereo unspecified)	inconclusive: 39.7%
CCOC(=O)c1oc2ccccc2c1CN1CCN(C)CC1	inconclusive: 50.6%
O=C(NCc1cccs1)c1ccc([N+](=O)[O-])cc1Cl	inconclusive: 46.7%
O=C(CN1C(=O)c2cccc3cccc1c23)Nc1ccc(S(=O)(=O)Nc2nccs2)cc1	inconclusive: 44.4%
Cc1sc(NC(=O)CN2CCN(c3ccccn3)CC2)c(C#N)c1C	inconclusive: 35.6%
Cn1c(SCc2ccccc2Cl)nc2ccccc21	inconclusive: 37.1%
COCCN(CC(=O)Nc1ccccc1)S(=O)(=O)c1ccc(S(=O)(=O)N2CCCC2)cc1	inconclusive: 42.9%
COc1ccccc1N1Cc2ccccc2C1	inconclusive: 45%
Cc1oc(C(=O)O)cc1CSc1nnc(-c2ccccc2)n1C	inconclusive: 61.5%
COc1ccc2c(c1)OC1=C(C(=O)CCC1)C2C1=C(O)CCCC1=O (stereo unspecified)	inconclusive: 34.8%
COCCn1c(Sc2nc(C)cs2)nc2c1c(=O)[nH]c(=O)n2C	inactive: -3.29%
COc1ccccc1N(C)S(=O)(=O)c1ccc(Cl)c(C(=O)OCc2c(C)noc2C)c1	inconclusive: 39.9%
Cn1c(-c2ccccc2)cnc1SCC(=O)NCc1ccco1	inconclusive: 45.1%
COc1ccccc1/C=c1\sc2nc(-c3ccccc3OC)nn2c1=O	inconclusive: 35.8%
CCOc1ccc(-c2nnc3ccc(SCc4ccc(C(=O)OC)o4)nn23)cc1	inconclusive: 58.6%
COc1cccc(-n2nc3c(-n4ncc(C#N)c4N)nnc(C)c3c2C)c1	inconclusive: 38.5%
O=C(COC(=O)c1ccco1)NCc1ccc2c(c1)OCO2	inactive: 18.2%
CCCN(c1ccc(OCC)cc1)S(=O)(=O)c1ccc2c(c1)CCN2C(=O)CCC(=O)O	inconclusive: 49.4%
O=C(N1CCCCC1)N1CCN(C(c2ccccc2)c2ccccc2)CC1	inconclusive: 45.5%
O=c1cc(CN2CCc3ccccc32)nc2sccn12	inactive: 23.2%

SMILES	inhibition
O=C(c1ccco1)N1CCN(C(=O)C2CCN(S(=O)(=O)c3cnc[nH]3)CC2)CC1	inconclusive: 38.3%
O=C1c2ccccc2C(=O)N1CCCc1nc(-c2ccccc2)no1	inconclusive: 54.7%
Cc1ccc(NC(=O)CN2C(=O)N/C(=C/c3cc(C)n(-c4cccc(C(=O)O)c4)c3C)C2=O)cc1	inconclusive: 63.8%
Oc1ccc2ccccc2c1Br	inactive: 0.97%
OCC1(CCOc2ccccc2)CCN(Cc2cccn2-c2ncccn2)CC1	inconclusive: 41.1%
COc1ccc(N2CCN(C(=O)CCc3c[nH]c4ccccc34)CC2)cc1	inactive: 3.01%
CC(OC(=O)CN(C)S(=O)(=O)c1ccc(Cl)cc1)C(=O)Nc1cccc(Cl)c1 (stereo unspecified)	inconclusive: 7.8%
Cc1ccc(C)c(Cn2c(C(=O)OC(C)C)cc3c2ccn3C)c1	inconclusive: 40%
CN(C)S(=O)(=O)c1cccc(NC(=S)N/N=C/C(c2ccccc2)c2ccccc2)c1	inconclusive: 35.7%
Cc1c(N=Cc2ccc(Cl)o2)c(=O)n(-c2ccccc2)n1C	inconclusive: 38%
COc1ccc(S(=O)(=O)N2CCC(C(=O)NCc3ccccn3)CC2)cc1OC	inconclusive: 38.7%
CCOCC(=O)Nc1cc(C(=O)Nc2cccc(C)c2C)ccc1Cl	inconclusive: 48.6%
COCC(C)N=Cc1c(O)[nH]c2ccccc12 (stereo unspecified)	inconclusive: 33.2%
O=C1OC2CC3CC1CC(O)(C3)C2 (stereo unspecified)	inconclusive: 42.8%
O=C(O)c1cccnc1Oc1ccccc1	inconclusive: 35.7%
OCCN1CCN(C(c2cccs2)c2ccc3cccnc3c2O)CC1 (stereo unspecified)	inconclusive: 60.5%
CCOc1ccc(-c2cc(CCCC(=O)Nc3cc(OC)ccc3OC)no2)cc1	inconclusive: 38%
CCS(=O)(=O)n1nc(-c2ccco2)nc1N	inconclusive: 33.2%
COc1ccc(-c2[nH]ncc2CN2CCC(OCc3ccccc3)CC2)c(F)c1	inconclusive: 57.9%
COc1ccccc1-n1c(SCC(=O)c2ccc(O)cc2O)nc2cc([N+](=O)[O-])ccc21	inactive: 11.3%
O=C1N/C(=N\N=C\c2cccs2)SC1Cc1cccc(Cl)c1Cl (stereo unspecified)	inconclusive: 33.4%
COC(=O)c1cc([N+](=O)[O-])c(C)c(C)n1	inactive: -2.89%
O=c1[nH]c2ccccc2n1C1=CCNCC1	inconclusive: 41.1%

SMILES	inhibition
Cc1ccc(NS(=O)(=O)c2cc(OCC(N)=O)c(C)cc2Cl)cc1	inconclusive: 36.2%
CC(C)CNC(=O)c1coc(=O)c(Br)c1	inactive: 12.1%
CC(=O)c1c(C)[nH]c(C(=O)Nc2ccc(C)c(S(=O)(=O)Nc3ccc(C)cc3C)c2)c1C	inconclusive: 42%
O=C(CCNS(=O)(=O)c1ccccc1F)NCc1ccc2c(c1)OCO2	inconclusive: 14.9%
CCN(CCCNC(=O)C1CCC(=O)N1Cc1ccc(C)cc1)c1cccc(C)c1 (stereo unspecified)	inconclusive: 27.2%
COC(=O)c1ccc(CN(Cc2ccc(C(=O)OC)o2)C(C)(C)C)o1	inconclusive: 37.6%
Cn1c(=O)c2c(SCc3ccccc3)nc(-c3ccco3)nc2n(C)c1=O	inconclusive: 60.1%
Cc1ccc(C(c2sc3ncnn3c2O)N2CC(C)CC(C)C2)cc1 (stereo unspecified)	inconclusive: 55.1%
O=c1oc2ccccc2n1CCCCCn1c(=O)oc2ccccc21	inconclusive: 62.9%
CCOc1cc(/C=N/NC(=O)C(=O)NCC2CCCO2)ccc1OCC(=O)N1CCOCC1 (stereo unspecified)	inconclusive: 37.8%
CCCC(O)(c1ccc(OC)cc1)C(CN(C)C)c1ccccc1 (stereo unspecified)	inconclusive: 36.1%
COC(=O)C1c2ccccc2-c2ccccc21	inconclusive: 39%
COc1cc(/C=C(\NC(C)=O)C(=O)O)cc(OC)c1OC	inconclusive: 47.2%
CCc1c(C)nc2ncnn2c1N1CCCC(C(=O)NCCc2ccc(OC)cc2)C1 (stereo unspecified)	inconclusive: 30.8%
Cc1ccccc1-c1cc2c(nn1)-c1ccccc1C2=O	inconclusive: 54.9%
Cc1cc(C)n(C(=O)CNc2cccc(Cl)c2C)n1	inconclusive: 41.7%
CN(C)S(=O)(=O)N1CCc2ccccc21	inactive: 28.1%
C=CCNc1nnc(SC2CC(=O)N(c3ccc(OCCC)cc3)C2=O)s1 (stereo unspecified)	inconclusive: 60.5%
Brc1ccc(CSc2nnc(-c3ccco3)o2)cc1	inactive: -2.39%
CN(C)CCNC(=O)COc1cccc(Cl)c1	inconclusive: 35.6%
CC(NC(=O)Nc1ccccc1)C(c1cccs1)N1CCN(c2ccccc2)CC1 (stereo unspecified)	inconclusive: 50.7%
Cc1csc(/C(=N\O)c2csc(C)n2)n1	inconclusive: 49.5%
Cc1c(O)c(S(=O)c2ccccc2)c(=O)n(-c2ccccc2)c1-c1ccccc1 (stereo unspecified)	inconclusive: 37.2%

SMILES	inhibition
Cc1ccc(CN2C(=O)N/C(=C\c3cccn3-c3cccc(C(=O)O)c3)C2=O)cc1	inconclusive: 44.8%
O=c1[nH]c(=S)[nH]c2nccnc12	inactive: -0.53%
COCCN1Cc2cccc(C(=O)NCc3ccc4c(c3)OCO4)c2C1=O	inconclusive: 46.3%
COc1ccccc1C1SCCN1S(=O)(=O)c1cccc(C(F)(F)F)c1 (stereo unspecified)	inconclusive: 40.1%
Cc1cc(C)c2nc(NNC(=O)c3cc(=O)c4ccccc4o3)sc2c1	inconclusive: 38.7%
CCCn1nc(Oc2nc(NCC)nc(NC(C)C)n2)ccc1=O	inconclusive: 46.8%
CN(C)S(=O)(=O)c1cccc(COC(=O)c2ccc3c(c2)OCO3)c1	inconclusive: 40%
CCCCN(C)C(=O)Cn1cnc2sc(C)cc2c1=O	inconclusive: 41.5%
N#CC1=C(N)OC2=C(C(=O)CC(c3ccccc3)C2)C1c1ccoc1 (stereo unspecified)	inconclusive: 38.1%
CCC(=O)Nc1ccc(C(=O)COC(=O)Cc2ccsc2)cc1	inconclusive: 60.8%
O=C(O)c1ccccc1NS(=O)(=O)c1cccc2cccnc12	inconclusive: 33.6%
O=C(CSc1nc2nc(-c3cccs3)cc(C(F)(F)F)c2c(=O)[nH]1)NCc1ccco1	inconclusive: 34.6%
O=C(/C=C\c1ccc2c(c1)OCO2)Nc1nnc(SCC(=O)OCc2ccccc2)s1	inconclusive: 43.2%
Clc1ccc(-c2noc(CN3CCN(c4ccccc4)CC3)n2)cc1	inconclusive: 34.3%
O=c1[nH][nH]c2cc(=O)n(-c3ccc(Cl)cc3)nc12	inconclusive: 48%
CSCCC(NC(=O)COc1ccccc1)C(=O)N1CCN(c2ccccc2)CC1 (stereo unspecified)	inconclusive: 36.1%
O=C(NCc1ccc(OC(F)(F)F)cc1)C1CC(c2ccccc2[N+](=O)[O-])=NO1 (stereo unspecified)	inconclusive: 33.8%
CCCCc1ccc(NC(=O)c2ccc(N(C)S(C)(=O)=O)cc2)cc1	inconclusive: 52%
O=C(O)/C=C/c1cn(-c2ccccc2)nc1-c1cc2ccccc2o1	inconclusive: 47.7%
Clc1ccc(-c2cc3ccccc3nc2N2CCCC2)cc1	inconclusive: 50.9%
Cc1cccc(NC(=O)c2ccc(-n3cccn3)c([N+](=O)[O-])c2)c1	inconclusive: 36.4%
C[C@H](O)[C@@H]1C(=O)N2CCc3ccc(N4CCOCC4)cc3[C@@H]2C[C@@H]1N(C)S(=O)(=O)c1ccccc1	inactive: -8.52%
